Earlier results in US6683105B2 (priority 1997, dated 2004).
At least one compound was matched to its structure with a doubt left.

System: βAPP secretion, glioblastoma, HeLa, neuroblastoma and PCI2 cell lines
Conditions: neuronal cells treated with cholinesterase inhibitors; cited from earlier work

Structure (SMILES): CNC(=O)Oc1ccc2c(c1)[C@]1(C)CCN(C)[C@@H]1N2C [Compound 1, physostigmine]
- secretion of βAPP: none of the other drugs, all classical anticholinesterases, produced a change
